Among the data in paper PMC10114496 are binding values, retold here.

Chains of the proteins cited; added tags and fusions are not shown.
UniProt Q9Y294: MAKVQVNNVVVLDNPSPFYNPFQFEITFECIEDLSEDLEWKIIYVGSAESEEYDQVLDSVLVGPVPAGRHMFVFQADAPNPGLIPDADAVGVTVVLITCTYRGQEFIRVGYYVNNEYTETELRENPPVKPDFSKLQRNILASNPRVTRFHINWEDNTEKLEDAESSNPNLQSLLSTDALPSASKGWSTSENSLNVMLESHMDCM
UniProt Q9NVP2: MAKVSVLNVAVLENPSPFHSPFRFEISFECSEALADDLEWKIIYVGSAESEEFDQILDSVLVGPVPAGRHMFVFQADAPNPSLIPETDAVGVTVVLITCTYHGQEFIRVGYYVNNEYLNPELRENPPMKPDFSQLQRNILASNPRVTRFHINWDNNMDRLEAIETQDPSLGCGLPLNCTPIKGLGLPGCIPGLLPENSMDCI
UniProt P52294: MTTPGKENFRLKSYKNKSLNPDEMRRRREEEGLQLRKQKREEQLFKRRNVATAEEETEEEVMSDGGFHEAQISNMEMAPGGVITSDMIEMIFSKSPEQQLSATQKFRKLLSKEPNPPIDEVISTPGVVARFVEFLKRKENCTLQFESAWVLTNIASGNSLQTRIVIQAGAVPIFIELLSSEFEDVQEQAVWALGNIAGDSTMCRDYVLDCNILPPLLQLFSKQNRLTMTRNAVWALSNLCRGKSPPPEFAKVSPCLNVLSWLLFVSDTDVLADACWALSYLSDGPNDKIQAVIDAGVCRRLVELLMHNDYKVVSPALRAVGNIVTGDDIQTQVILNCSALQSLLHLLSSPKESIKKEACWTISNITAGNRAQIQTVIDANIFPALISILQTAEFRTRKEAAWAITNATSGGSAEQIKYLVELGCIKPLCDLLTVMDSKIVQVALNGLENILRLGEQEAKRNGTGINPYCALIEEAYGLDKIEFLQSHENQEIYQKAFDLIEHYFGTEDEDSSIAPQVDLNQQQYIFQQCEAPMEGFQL
UniProt Q9Y6J0: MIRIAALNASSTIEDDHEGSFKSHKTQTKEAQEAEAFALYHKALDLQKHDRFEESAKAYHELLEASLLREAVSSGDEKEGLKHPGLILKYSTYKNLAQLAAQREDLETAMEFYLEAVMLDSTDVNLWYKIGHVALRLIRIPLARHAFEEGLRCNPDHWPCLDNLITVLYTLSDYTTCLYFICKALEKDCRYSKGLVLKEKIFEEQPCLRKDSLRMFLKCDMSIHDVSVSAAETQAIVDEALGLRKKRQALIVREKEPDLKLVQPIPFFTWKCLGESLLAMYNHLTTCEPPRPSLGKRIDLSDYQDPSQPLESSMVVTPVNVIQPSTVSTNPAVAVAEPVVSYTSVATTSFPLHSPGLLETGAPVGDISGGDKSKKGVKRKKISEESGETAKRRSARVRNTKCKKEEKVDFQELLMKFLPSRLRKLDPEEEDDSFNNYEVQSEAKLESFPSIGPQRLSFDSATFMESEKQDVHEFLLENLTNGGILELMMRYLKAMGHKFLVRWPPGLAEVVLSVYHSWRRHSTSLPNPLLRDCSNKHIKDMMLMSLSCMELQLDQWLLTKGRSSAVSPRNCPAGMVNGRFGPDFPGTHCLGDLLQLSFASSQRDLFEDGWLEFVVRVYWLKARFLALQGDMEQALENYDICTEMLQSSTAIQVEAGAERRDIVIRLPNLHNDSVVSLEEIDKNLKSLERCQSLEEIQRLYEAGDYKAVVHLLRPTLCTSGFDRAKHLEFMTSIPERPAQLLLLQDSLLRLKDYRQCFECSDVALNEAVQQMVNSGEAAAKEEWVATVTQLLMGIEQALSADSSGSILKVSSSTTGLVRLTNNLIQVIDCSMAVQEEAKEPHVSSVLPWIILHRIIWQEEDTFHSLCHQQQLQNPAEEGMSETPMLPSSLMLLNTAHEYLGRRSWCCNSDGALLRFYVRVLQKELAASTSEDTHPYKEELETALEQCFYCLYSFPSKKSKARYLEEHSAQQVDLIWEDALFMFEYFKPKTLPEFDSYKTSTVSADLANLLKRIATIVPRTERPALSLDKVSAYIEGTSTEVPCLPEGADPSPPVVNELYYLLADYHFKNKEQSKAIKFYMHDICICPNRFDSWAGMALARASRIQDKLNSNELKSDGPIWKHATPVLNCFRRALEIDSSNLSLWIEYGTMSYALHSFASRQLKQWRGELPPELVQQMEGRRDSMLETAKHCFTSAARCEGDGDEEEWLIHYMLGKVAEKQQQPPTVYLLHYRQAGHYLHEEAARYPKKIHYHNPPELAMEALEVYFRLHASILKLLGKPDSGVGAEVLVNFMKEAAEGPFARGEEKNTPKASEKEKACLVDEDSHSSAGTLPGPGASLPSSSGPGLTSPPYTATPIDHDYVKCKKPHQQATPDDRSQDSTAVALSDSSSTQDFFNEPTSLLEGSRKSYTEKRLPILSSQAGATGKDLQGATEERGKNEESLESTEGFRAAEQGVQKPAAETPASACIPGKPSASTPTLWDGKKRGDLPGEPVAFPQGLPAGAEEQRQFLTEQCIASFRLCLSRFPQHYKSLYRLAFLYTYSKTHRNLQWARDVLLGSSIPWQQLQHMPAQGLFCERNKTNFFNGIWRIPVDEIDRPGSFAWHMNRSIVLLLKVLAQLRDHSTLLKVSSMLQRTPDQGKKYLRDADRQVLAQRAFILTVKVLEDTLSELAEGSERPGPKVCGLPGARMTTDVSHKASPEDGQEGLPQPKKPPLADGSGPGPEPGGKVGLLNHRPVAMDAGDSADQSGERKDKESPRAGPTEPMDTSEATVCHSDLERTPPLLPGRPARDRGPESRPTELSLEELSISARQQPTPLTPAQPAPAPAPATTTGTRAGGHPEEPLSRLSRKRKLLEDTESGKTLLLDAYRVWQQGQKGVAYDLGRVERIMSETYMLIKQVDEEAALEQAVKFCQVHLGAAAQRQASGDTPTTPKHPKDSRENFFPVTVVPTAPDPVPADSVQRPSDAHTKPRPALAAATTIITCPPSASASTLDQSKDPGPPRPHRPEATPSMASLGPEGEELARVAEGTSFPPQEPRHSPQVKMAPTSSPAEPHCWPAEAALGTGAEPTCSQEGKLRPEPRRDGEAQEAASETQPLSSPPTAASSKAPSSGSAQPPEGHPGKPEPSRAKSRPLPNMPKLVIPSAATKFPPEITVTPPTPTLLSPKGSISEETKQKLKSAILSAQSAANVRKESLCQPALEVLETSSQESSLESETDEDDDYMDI
UniProt Q9NPG3: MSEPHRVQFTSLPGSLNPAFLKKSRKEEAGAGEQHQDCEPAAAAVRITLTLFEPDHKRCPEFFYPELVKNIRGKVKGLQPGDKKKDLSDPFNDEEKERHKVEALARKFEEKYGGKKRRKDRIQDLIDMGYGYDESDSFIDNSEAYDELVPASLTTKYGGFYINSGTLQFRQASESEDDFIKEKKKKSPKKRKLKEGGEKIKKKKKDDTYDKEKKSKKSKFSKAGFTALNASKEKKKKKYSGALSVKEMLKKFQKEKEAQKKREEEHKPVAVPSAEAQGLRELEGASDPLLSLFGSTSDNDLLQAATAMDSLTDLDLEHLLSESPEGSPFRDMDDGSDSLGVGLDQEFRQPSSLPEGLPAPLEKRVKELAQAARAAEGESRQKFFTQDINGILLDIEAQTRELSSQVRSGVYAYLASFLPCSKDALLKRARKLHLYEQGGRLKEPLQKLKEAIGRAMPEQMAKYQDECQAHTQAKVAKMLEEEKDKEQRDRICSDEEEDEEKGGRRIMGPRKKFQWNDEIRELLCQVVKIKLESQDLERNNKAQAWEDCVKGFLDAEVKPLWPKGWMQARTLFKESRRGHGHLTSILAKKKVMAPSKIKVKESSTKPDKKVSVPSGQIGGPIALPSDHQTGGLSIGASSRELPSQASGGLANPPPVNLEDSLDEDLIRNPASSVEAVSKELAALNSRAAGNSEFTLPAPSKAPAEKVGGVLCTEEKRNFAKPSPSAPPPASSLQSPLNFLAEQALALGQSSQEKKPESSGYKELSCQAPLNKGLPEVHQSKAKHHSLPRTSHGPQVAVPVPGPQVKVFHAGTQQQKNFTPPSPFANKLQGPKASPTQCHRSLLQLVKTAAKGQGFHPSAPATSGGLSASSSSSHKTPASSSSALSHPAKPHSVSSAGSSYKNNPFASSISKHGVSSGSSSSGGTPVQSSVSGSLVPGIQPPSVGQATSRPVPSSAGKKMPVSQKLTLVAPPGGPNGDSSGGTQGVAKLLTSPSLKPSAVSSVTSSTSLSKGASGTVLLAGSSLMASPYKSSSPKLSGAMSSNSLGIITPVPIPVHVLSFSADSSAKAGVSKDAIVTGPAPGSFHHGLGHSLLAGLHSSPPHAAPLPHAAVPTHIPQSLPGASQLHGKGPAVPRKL
UniProt Q6ZU65: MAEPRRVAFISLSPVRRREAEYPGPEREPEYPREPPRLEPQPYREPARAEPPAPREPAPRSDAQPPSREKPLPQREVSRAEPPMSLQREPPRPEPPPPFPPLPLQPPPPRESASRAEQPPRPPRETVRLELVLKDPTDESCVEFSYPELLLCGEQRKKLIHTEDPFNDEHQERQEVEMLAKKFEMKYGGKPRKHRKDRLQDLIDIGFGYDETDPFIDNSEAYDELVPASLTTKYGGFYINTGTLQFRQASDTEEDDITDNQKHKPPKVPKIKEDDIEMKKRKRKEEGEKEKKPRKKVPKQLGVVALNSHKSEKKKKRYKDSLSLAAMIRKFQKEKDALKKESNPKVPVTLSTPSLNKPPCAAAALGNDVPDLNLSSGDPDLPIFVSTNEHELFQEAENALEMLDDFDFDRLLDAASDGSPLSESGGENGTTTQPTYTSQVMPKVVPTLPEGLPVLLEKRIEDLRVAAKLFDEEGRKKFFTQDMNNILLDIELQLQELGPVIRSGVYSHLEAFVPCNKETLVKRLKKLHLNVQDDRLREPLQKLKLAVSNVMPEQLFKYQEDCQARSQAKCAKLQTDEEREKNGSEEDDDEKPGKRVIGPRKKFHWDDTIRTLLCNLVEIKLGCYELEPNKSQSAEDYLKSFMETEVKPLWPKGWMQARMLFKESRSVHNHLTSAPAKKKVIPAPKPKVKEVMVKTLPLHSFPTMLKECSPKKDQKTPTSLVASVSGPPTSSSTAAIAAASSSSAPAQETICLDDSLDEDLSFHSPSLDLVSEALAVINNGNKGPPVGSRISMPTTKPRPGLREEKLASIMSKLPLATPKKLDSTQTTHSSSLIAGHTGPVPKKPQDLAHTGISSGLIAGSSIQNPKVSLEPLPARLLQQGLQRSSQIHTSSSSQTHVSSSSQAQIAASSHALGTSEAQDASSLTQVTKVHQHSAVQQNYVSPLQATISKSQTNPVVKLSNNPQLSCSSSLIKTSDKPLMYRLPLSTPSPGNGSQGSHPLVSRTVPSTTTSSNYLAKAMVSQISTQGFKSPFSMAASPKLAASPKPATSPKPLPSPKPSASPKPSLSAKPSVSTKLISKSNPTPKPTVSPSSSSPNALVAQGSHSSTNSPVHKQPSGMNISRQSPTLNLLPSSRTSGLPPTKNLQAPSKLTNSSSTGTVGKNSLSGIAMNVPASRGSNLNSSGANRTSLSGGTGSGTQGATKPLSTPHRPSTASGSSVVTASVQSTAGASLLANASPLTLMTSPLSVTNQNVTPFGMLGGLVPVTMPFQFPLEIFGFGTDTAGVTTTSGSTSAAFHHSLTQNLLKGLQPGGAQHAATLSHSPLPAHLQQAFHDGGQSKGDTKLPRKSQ
UniProt P51114: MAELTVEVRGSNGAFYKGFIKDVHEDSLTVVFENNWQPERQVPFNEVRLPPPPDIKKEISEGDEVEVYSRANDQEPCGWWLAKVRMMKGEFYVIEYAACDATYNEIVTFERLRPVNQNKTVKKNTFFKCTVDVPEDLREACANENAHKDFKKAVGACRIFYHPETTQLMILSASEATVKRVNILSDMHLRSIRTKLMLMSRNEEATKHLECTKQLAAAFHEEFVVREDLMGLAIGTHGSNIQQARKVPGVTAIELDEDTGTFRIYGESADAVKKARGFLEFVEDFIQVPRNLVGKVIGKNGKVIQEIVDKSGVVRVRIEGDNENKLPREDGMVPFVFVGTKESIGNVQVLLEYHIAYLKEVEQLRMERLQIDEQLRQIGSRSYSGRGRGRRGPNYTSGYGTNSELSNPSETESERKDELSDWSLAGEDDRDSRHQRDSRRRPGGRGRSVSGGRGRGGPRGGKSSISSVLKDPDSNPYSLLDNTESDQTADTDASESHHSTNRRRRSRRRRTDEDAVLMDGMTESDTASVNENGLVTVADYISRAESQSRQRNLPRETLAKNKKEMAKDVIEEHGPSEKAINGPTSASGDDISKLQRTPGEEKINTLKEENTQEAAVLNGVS

These are yes or no findings as the source states them, for the method shown. In cells and extracts the contact can be indirect. Here binding means that the protein was enriched with, or labelled near, the bait; the list need not be complete.

Assay in all cases: affinity purification with mass spectrometry; triple SILAC IP-MS: Strep-HA-tagged chaperone (WT, mutant, control cells) held on MagStrep type3 XT beads for 3 hrs at 4 °C from soluble HeLa S3 extracts (300 mM NaCl, 0.05 % Nonidet P40, 50 mM Tris.HCl pH 7.6); washes at 150 mM NaCl; eluted with BXT buffer
For assay [1], the target named is sNASP-WT-Strep-HA (human) (UniProt P49321).
Assay [2] deals with Strep-HA-ASF1a-WT (human) (UniProt Q9Y294).
In assay [3] the target is Strep-HA-ASF1b-WT (human) (UniProt Q9NVP2).

With U520 (from UniProt O75643 1-2136), the binding entry in assay [1] is “binds”.

IMA5/KPNA1 (from UniProt P52294 1-538): the binding entry in assay [1] was “binds”. On to CABIN (from UniProt Q9Y6J0 1-2220), for which the binding result in assay [2] and in assay [3] was “binds” each time.

Take HIRA (from UniProt P54198 1-1017): the binding entry in assay [2] and in assay [3] was “binds” each time.

Consider HNRPK (from UniProt P61978 1-463), for which the binding entry in assay [1] is reported as “binds”.

For the substance UBN1 (from UniProt Q9NPG3 1-1134), the binding result in assay [2] and in assay [3] was “binds” throughout.

Regarding UBN2 (from UniProt Q6ZU65 1-1347), the binding result in assay [2] and in assay [3] was “binds” in each case.

With FXR1 (from UniProt P51114 1-621), the binding entry in assay [2] and in assay [3] was “binds” in each case.
